Out of some 360,000 compounds screened, about 7,500 (2.1%) were called active. This list was built around the results that the source calls inconclusive (neither active nor inactive); the mix of calls is not that of the screen. Calls follow the shape of the dose curve; as a rule, active = well fitted inhibition curve with a large enough effect; inconclusive = small, poorly fitted or top-dose-only effect, or effect the other way; inactive = flat fitted curve, though single readings scatter. A potency beside an inconclusive call is a rough fit, not a confirmed value.
Experiment: Nrf2 qHTS screen for inhibitors; also: nearly all actives have a fitted effect of over 60% in size
Conditions: A549 ARE-Fluc reporter, luciferase luminescence, 18-24 h; activity change, negative = inhibition: at 46 µM (top of the series)
In short: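 In this cell-based qHTS, ARE-driven firefly luciferase in A549 cells reports Nrf2 activity; the luminescent signal after BugLite lysis is the measured value, with a prior CellTiter-Fluor read for cell health.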
% is scaled to controls: 0 for no effect and ±100 for the full control effect; potency is read from the fitted curve at half-maximal effect.

Row | SMILES | Potency | activity change, negative = inhibition
1 | CN(C)C(=O)CCSc1nnc(-c2ccncc2)o1 | inconclusive: 32.6 µM [activator, partial curve, poor fit] | –
2 | Cc1ccc(CNC(=O)C(C)n2c(=O)cc(C(F)(F)F)c3c(C)nn(C)c32)cc1 (centres undefined) | inconclusive: 32.6 µM [falling, single point] | –
3 | CC(=O)Nc1cc2nn(-c3ccccc3)nc2cc1Cl | inconclusive: 8.2 µM [activator, partial curve] | –
4 | CN(C)C(=O)CSc1nnc(-c2ccco2)n1-c1ccccc1 | – | inactive: 2.96%
5 | NC(=O)c1cc2ccccc2o/c1=N/NC(=O)c1ccccc1 | inconclusive: 32.6 µM [falling, single point] | –
6 | N#Cc1c(N2CCCC2)nc(N)c2c(N)nc(N3CCCC3)cc12 | inconclusive: 23.1 µM [activator, single point] | –
7 | Cc1[nH]c2ccccc2c1/C=N/NC(=O)c1cccc(S(=O)(=O)Nc2cccc(C(F)(F)F)c2)c1 | – | inactive: -13.8%
8 | CCN1C(=O)/C(=C/N(C)C)c2ccccc21 | inconclusive: 16.4 µM [falling, partial curve, poor fit] | –
9 | Cc1ccccc1N(C)S(=O)(=O)c1nnc(NC(=O)c2ccco2)s1 | inconclusive: 8.2 µM [activator, partial curve] | –
10 | O=C(CCCn1c(SCc2cccc(F)c2)nc2ccccc2c1=O)NCC1CCCO1 (centres undefined) | inconclusive: 18.4 µM [falling, single point] | –
11 | COc1ccc(OC)c(CNS(=O)(=O)c2cc(CN3C(=O)c4cccnc4C3=O)ccc2OC)c1 | inconclusive: 18.4 µM [activator, partial curve, poor fit] | –
12 | COc1ccc(Cc2nnc3n2N=C(c2cc4ccccc4o2)CS3)cc1OC | inconclusive: 20.6 µM [falling, single point] | –
13 | Cc1ccc(NC(=O)C2(C)Cc3ccccc3C(=O)O2)c(C)c1 (centres undefined) | inconclusive: 32.6 µM [activator, single point] | –
14 | CCC1CCCCN1C(=O)COC(=O)c1cc(=O)[nH]c2ccccc12 (centres undefined) | – | inactive: -2.75%
15 | Cc1nc2ccccc2n1-c1ccccc1 | – | inactive: 5.75%
16 | CC1C(=O)N(Cc2cccc(F)c2)c2ccccc2N1C(=O)c1ccccc1 (centres undefined) | inconclusive: 29.1 µM [falling, single point] | –
17 | CC(=O)Nc1ccc(S(=O)(=O)N(C)CC(=O)N/N=C/c2ccncc2)cc1 | – | inactive: 5.86%
18 | CCOc1ccc(NC(=O)c2ccco2)cc1 | inconclusive: 0.411 µM [activator, full curve] | –
19 | O=c1c2ccccc2oc2ccc(Oc3ccccc3)cc12 | inconclusive: 14.6 µM [activator, partial curve] | –
20 | Cc1cc(OCC(=O)NCCc2nc3ccccc3[nH]2)cc(C)c1Cl | inconclusive: 5.17 µM [falling, single point] | –
21 | CCCCNC(=O)/C=C/c1ccc(OC)c(Br)c1 | inconclusive: 10.3 µM [falling, partial curve, poor fit] | –
22 | CCCCn1c(CN2CCN(c3cccc(Cl)c3)CC2)nc2c1c(=O)n(C)c(=O)n2C | inconclusive: 16.4 µM [falling, partial curve, poor fit] | –

Shown in CSV form: part of the list above
Row,SMILES,Potency,"activity change, negative = inhibition"
6,N#Cc1c(N2CCCC2)nc(N)c2c(N)nc(N3CCCC3)cc12,"inconclusive: 23.1 µM [activator, single point]",–
7,Cc1[nH]c2ccccc2c1/C=N/NC(=O)c1cccc(S(=O)(=O)Nc2cccc(C(F)(F)F)c2)c1,–,inactive: -13.8%
8,CCN1C(=O)/C(=C/N(C)C)c2ccccc21,"inconclusive: 16.4 µM [falling, partial curve, poor fit]",–
9,Cc1ccccc1N(C)S(=O)(=O)c1nnc(NC(=O)c2ccco2)s1,"inconclusive: 8.2 µM [activator, partial curve]",–
10,O=C(CCCn1c(SCc2cccc(F)c2)nc2ccccc2c1=O)NCC1CCCO1 (centres undefined),"inconclusive: 18.4 µM [falling, single point]",–
11,COc1ccc(OC)c(CNS(=O)(=O)c2cc(CN3C(=O)c4cccnc4C3=O)ccc2OC)c1,"inconclusive: 18.4 µM [activator, partial curve, poor fit]",–

(further entries)

Row | SMILES | Potency | activity change, negative = inhibition
23 | CC1(C)CC(=O)C(C=Nc2cc(C(=O)c3ccccc3)ccc2N)=C(O)C1 | inconclusive: 32.6 µM [activator, partial curve, poor fit] | –
24 | CCOC(=O)Cc1csc(/N=C/c2c(O)n(-c3ccccc3C(F)(F)F)c(=O)c3ccccc23)n1 | active: 13 µM | –
25 | Cc1cccc(S(=O)(=O)Nc2nc3ccccc3nc2NCc2ccco2)c1 | inconclusive: 18.4 µM [falling, single point] | –
26 | COc1ccc(N2CC(NS(=O)(=O)c3ccc4ccccc4c3)CC2=O)cc1 (centres undefined) | inconclusive: 23.1 µM [falling, single point] | –
27 | COc1ccccc1Cc1nc(-c2ccc(Br)o2)no1 | inconclusive: 20.6 µM [activator, partial curve, poor fit] | –
28 | CCOC(=O)c1ccc(NC(=S)NCc2ccc(S(N)(=O)=O)cc2)cc1 | inconclusive: 13 µM [falling, partial curve] | –
29 | Cc1ccc(C(=O)NNC(=O)CSc2nnc(-c3ccncc3)n2C)cc1 | inconclusive: 0.731 µM [falling, full curve, poor fit] | –
30 | CCc1ccc2oc(-c3ccc(C)c(NC(=O)/C=C/c4ccco4)c3)nc2c1 | inconclusive: 7.31 µM [activator, partial curve] | –
31 | CCN(CCNC(=O)C1=C(C)C(=O)OC12CCC(C)CC2)c1ccccc1 (centres undefined) | inconclusive: 20.6 µM [falling, single point] | –
32 | CC(C)c1ccc(/C=N/NC(=O)CCNC(=O)c2ccccc2)cc1 | inconclusive: 16.4 µM [activator, partial curve] | –
33 | CSc1ccc(CN2CCN(C(=O)CC(C)C)CC2)cc1 | active: 25.9 µM | –
34 | Cc1cc2nc(SCC(=O)N(C)C)c3c(c2cc1C)CCCC3 | inconclusive: 29.1 µM [falling, single point] | –
35 | O=S(=O)(c1cccs1)N1CCN(CCOc2ccccc2)CC1 | inconclusive: 32.6 µM [falling, single point] | –
36 | N#Cc1c(C(F)(F)F)cc(=O)n2c1[nH]c1ccccc12 | inconclusive: 11.6 µM [falling, partial curve, poor fit] | –
37 | CC(C)Oc1ccc(S(=O)(=O)N2CCCCC2)cc1NC(=O)C1=COCCO1 | inconclusive: 13 µM [falling, partial curve, poor fit] | –
38 | CC1CCC(NS(=O)(=O)c2cccc3nsnc23)CC1 (centres undefined) | – | inactive: -7.96%
39 | Cc1cc(C)c2cc(CN(CC3CCCO3)C(=S)NCc3ccco3)c(=O)[nH]c2c1 (centres undefined) | inconclusive: 29.1 µM [activator, single point] | –
40 | CCOc1ccc(CCNC(=O)C2CCCN(S(=O)(=O)N(C)c3ccc(F)cc3)C2)cc1 (centres undefined) | inconclusive: 29.1 µM [falling, single point] | –
41 | CC(C)OCCCNC(=O)Nc1cccc2ccccc12 | inconclusive: 3.66 µM [falling, partial curve, poor fit] | –
42 | Cc1ccc2[nH]cc(CCNC(=O)C3CCCCC3)c2c1 | – | inactive: -15.9%
43 | Cc1ccc(C)c(NC(=O)Cn2cc(C(=O)C3CC3)c3ccccc32)c1 | inconclusive: 32.6 µM [falling, single point] | –
44 | CCOc1ccccc1NC(=O)Nc1ccon1 | inconclusive: 32.6 µM [falling, partial curve, poor fit] | –

Row | SMILES | Potency | activity change, negative = inhibition
45 | COc1ccc(CN2CCN(C3CCC3)CC2CCO)cc1C (centres undefined) | inconclusive: 20.6 µM [activator, partial curve, poor fit] | –
46 | O=C1C=C(c2ccc(Cl)c(C(F)(F)F)c2)C[C@@H](c2ccc3c(c2)OCO3)C1 | inconclusive: 29.1 µM [falling, single point] | –
47 | COc1ccc(COc2ccsc2C(=O)Nc2ccc(Cl)c(Cl)c2)cc1 | inconclusive: 29.1 µM [falling, single point] | –
48 | COC(=O)C1=CN(Cc2ccccc2)C=C(C(=O)OC)C1c1ccc(OC)c(OC)c1 | inconclusive: 29.1 µM [falling, single point] | –
49 | Cc1ccc(S(=O)(=O)NCCC(=O)OCC(=O)Nc2cccc(S(=O)(=O)NC3=NCCCCC3)c2)cc1 | – | inactive: -4.96%
50 | Cc1ccc(C(=O)O/N=C(\N)c2ccccn2)cc1 | inconclusive: 6.51 µM [activator, partial curve] | –
51 | COc1ccc(C(=O)Nn2c(SCC(=O)N3CCC(C)CC3)nc3ccccc3c2=O)cc1 | inconclusive: 18.4 µM [falling, single point] | –
52 | COc1ccccc1NC(=O)CN1CCN(CC(=O)Nc2ccc(S(N)(=O)=O)cc2)CC1 | inconclusive: 18.4 µM [falling, partial curve, poor fit] | –
53 | CC(C)c1ccc(S(=O)(=O)/N=C2\C=C(NS(=O)(=O)c3ccccc3)C(=O)c3ccccc32)cc1 | inconclusive: 32.6 µM [falling, single point] | –
54 | O=C(COC(=O)c1ccc(Cl)nc1)Nc1cc(S(=O)(=O)N2CCCCC2)ccc1Cl | inconclusive: 18.4 µM [falling, single point] | –
55 | Cc1ccc(S(=O)(=O)CC(=O)Nc2nc3ccccc3s2)cc1 | inconclusive: 0.651 µM [activator, full curve, poor fit] | –
56 | OC(CNc1nc(C(F)(F)F)nc2ccccc12)c1ccccc1 (centres undefined) | inconclusive: 23.1 µM [falling, single point] | –
57 | CCc1ccc(CNC(=O)CCCn2ccc3cc(S(=O)(=O)N4CCCC4)ccc32)cc1 | inconclusive: 20.6 µM [falling, single point] | –
58 | CCCN(CC(=O)Nc1ccccc1OC)C(=O)c1ccc(=O)[nH]c1 | – | inactive: 9.77%
59 | CCOc1ccc(CCNC(=O)c2cc3c(-c4ccccc4F)nn(C)c3s2)cc1 | – | inactive: -12.1%
60 | Cc1nc(-c2ccccc2)sc1C1(C)CC(c2c(Cl)cccc2Cl)=NO1 (centres undefined) | inconclusive: 20.6 µM [falling, single point] | –
61 | O=C(c1ccccc1Br)N1CCCC(c2nc(-c3cccs3)no2)C1 (centres undefined) | inconclusive: 1.3 µM [falling, partial curve, poor fit] | –
62 | Cc1noc(C)c1COC(=O)Cc1ccc(Br)cc1 | inconclusive: 1.84 µM [activator, partial curve, poor fit] | –
63 | O=C(CN1CCN(Cc2ccccc2)CC1)Nc1cccc(C(F)(F)F)c1 | inconclusive: 4.11 µM [falling, partial curve, poor fit] | –
64 | CC(C)(C)c1ccc(OCCOc2ccc(C(C)(C)C)cc2NC=O)c(NC=O)c1 | inconclusive: 29.1 µM [falling, single point] | –
